Assay results published in article PMC7772775, “The uncharacterized protein FAM47E interacts with PRMT5 and regulates its functions” (Life Science Alliance, 2020).
Results are given in words; binding and its absence hold for the method and conditions named. In cells and extracts the contact can be indirect. Binding calls can cover weak binding; strength is not graded here.

Amino acid sequences for entries named in this document (tags omitted). A change or cut given only in a name is not applied to a line headed by its entry.
UniProt Q6ZV65: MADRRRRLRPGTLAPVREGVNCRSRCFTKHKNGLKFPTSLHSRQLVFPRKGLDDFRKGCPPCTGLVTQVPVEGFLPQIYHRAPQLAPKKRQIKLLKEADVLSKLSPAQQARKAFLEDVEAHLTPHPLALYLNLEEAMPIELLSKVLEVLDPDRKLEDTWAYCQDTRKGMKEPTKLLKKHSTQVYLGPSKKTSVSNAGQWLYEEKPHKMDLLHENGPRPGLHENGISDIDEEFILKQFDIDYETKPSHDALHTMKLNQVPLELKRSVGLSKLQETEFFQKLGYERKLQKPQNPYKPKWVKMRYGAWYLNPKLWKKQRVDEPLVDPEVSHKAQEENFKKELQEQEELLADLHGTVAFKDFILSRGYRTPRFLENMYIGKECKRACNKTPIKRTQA
UniProt O14744: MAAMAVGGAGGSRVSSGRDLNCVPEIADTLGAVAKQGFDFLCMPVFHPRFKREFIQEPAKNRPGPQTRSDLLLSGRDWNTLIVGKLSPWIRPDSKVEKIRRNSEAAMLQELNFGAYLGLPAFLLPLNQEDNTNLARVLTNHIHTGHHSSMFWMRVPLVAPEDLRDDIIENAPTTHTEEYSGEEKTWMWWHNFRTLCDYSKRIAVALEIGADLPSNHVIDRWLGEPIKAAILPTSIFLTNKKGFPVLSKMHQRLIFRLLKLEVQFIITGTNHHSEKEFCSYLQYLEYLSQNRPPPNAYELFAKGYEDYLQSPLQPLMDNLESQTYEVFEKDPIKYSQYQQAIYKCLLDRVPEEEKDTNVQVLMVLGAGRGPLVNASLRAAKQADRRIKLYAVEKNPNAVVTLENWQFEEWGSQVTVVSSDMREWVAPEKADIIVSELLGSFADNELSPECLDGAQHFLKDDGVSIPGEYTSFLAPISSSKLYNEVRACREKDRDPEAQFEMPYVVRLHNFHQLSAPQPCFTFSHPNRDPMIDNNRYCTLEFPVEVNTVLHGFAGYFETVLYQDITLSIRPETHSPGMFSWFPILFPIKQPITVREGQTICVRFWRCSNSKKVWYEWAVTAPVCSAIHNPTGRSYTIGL

Experiments:
[1] = biological target: endogenous FAM47E (human (endogenous in HEK293)) (UniProt Q6ZV65); assay: co-IP; endogenous proteins in HEK293 lysate (10 mM Tris pH 7.5, 150 mM NaCl, 0.5 mM EDTA, 0.5% NP40); rabbit IgG, FAM47E antibody or PRMT5 antibody, Protein A Dynabeads, 10 h at 4°C
[2] = biological target: endogenous PRMT5 (human (endogenous in HEK293)) (UniProt O14744); assay: as above

Row | binding [1] | binding [2] | Substance
1 | binds | – | endogenous PRMT5 (from UniProt O14744 1-637) (enzyme)
2 | – | binds | endogenous FAM47E (from UniProt Q6ZV65-2)
